According to patent publication US20210213145A1 (TAYU HUAXIA BIOTECH MEDICAL GROUP, published 2021):
These are yes or no findings as the source states them, for the method shown. Some binding calls cover weakened binding; strength is not graded here.

Sequences of proteins named here, by UniProt entry; tags and fusion partners are left off. A change or cut given only in a name is not applied to a line headed by its entry.
UniProt Q9NZQ7: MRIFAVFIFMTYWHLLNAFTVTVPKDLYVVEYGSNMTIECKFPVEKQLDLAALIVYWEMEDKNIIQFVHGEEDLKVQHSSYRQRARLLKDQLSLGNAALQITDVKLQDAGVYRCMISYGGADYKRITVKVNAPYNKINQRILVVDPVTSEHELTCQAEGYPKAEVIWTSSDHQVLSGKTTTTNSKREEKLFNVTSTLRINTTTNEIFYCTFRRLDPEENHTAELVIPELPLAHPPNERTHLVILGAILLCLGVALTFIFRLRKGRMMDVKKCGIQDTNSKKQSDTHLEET

What was measured:
[1] = target: human PD-L1 on transfected cells (human) (UniProt Q9NZQ7); test: FACS stability test, week 0 in Na-citrate buffer pH 5.5, 1st Ab 62.5/31/15.6 ng, 2nd Ab label partly lost (Fc-PE) 60 ng
[2] = target: human PD-L1 on transfected cells (human) (UniProt Q9NZQ7); test: FACS stability test, week 0 in PBS pH 7.4, 1st Ab 62.5/31/15.6 ng, 2nd Ab HuFc-PE 60 ng
[3] = target: human PD-L1 on transfected cells (human) (UniProt Q9NZQ7); test: FACS stability test, week 2 in PBS pH 7.4, 1st Ab 62.5/31/15.6 ng, 2nd Ab HuFc-PE 60 ng; storage temperature of this row not given
[4] = target: human PD-L1 on transfected cells (human) (UniProt Q9NZQ7); test: FACS on CHO/PD-L1 stable cells, anti-HuFc-PE
[5] = target: human PD-L1 on transfected cells (human) (UniProt Q9NZQ7); test: FACS stability test, week 2 in Na-citrate buffer pH 5.5, 1st Ab 62.5/31/15.6 ng, 2nd Ab HuFc-PE 60 ng; storage temperature of this row not given
[6] = target: human PD-L1 on transfected cells (human) (UniProt Q9NZQ7); test: competition on MC38-PD-L1 cells: unlabeled anti-PD-L1 IgG1 against 68Ga-NOTA-anti-PD-L1 scFv, gamma counting; the blocker's concentration is not printed on the sheet (text paragraph 461: 20, 40, 80, 160 nM)
[7] = target: human PD-L1 on transfected cells (human) (UniProt Q9NZQ7); test: flow cytometry on CHO/PD-L1 stable cells, 1st Ab 62.5, 31, 15.6, 7.8, 3.9, 1.9 ng, 2nd Ab anti-HuFc-PE 60 ng

Measured: binding

B1: parental humanized IgG1 positive control antibody (antibody, V domains shown)
VH: QVQLVQSGAEVKKPGASVKVSCKASGFNIKDTYMYWVRQAPGQGLEWMGRIDPANDNTKYAQKFQGRVTITADTSTSTAYMELSSLRSEDTAVYYCARAKNLLNYFDYWGQGTLVTVSS
VL: DIQMTQSPSSLSASVGDRVTITCRASQEISGYLSWLQQKPGKAPKRLIYATSTLQSGVPSRFSGSRSGTDYTLTISSLQPEDFATYYCLQYAIYPLTFGQGTKLEIKR
notes: also called anti-PD-L1 IgG1; Anti-Human PD-L1 IgG1
binds: all assays above
